US7569663
These are yes or no findings as the source states them, for the method shown. Some binding calls cover weakened binding; strength is not graded here.

Chains of the proteins cited; added tags and fusions are not shown. Lines headed by an entry give the natural chain unless they say otherwise; changes in a name come on top. Residues count along the entry.
UniProt P25445, residues 26-335: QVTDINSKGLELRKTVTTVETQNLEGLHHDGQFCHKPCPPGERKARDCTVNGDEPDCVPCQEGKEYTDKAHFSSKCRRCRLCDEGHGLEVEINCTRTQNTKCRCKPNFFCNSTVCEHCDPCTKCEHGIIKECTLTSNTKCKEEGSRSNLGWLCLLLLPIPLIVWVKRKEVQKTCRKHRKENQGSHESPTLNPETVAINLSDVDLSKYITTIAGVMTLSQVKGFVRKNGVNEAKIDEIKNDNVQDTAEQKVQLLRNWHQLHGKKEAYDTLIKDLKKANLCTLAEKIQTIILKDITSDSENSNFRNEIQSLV
UniProt P16410: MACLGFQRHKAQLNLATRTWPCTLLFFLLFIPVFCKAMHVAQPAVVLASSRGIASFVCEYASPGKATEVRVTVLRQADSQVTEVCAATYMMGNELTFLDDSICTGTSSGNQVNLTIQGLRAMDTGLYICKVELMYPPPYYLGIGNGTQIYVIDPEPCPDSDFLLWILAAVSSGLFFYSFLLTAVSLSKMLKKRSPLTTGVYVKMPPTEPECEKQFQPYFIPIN

Molecular target: Fas (CD95) receptor on Jurkat cells (human) (UniProt P25445)
Test: flow cytometry on Jurkat cells, detection of CTLA-4 epitopes

- binding: binds
Substance: CTLA-4•FasL (from UniProt P16410 36-161; P48023 127-281)
